The text below walks through data of PMC2572193, “Structural Analysis of the Interactions Between Paxillin LD Motifs and α-Parvin” (Structure(London, England:1993), 2008).

Test [1] has as its target T1, α-parvin-CHC (C-terminal calponin homology domain fragment of human α-parvin, residues 242-372) (human) (UniProt Q9NVD7).
T1 sequence: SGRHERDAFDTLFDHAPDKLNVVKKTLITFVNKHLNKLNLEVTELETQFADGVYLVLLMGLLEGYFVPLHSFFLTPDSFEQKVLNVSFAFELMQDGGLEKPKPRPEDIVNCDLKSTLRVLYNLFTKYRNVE
The test is described as follows: crystal structure; cocrystals of α-parvin-CHC with a 2-fold molar excess of LD peptide, sitting drops, 13°C; molecular replacement with the apo structure; both purified.

Test [2] deals with T1, α-parvin-CHC (C-terminal calponin homology domain fragment of human α-parvin, residues 242-372) (human). The test is described as follows: NMR titration; 1H-15N HSQC of 235 μM 15N-enriched α-parvin-CHC titrated with LD peptide; 50 mM sodium phosphate, 100 mM NaCl, 2 mM DTT, 5% D2O, pH 6.9, 25°C; global fit to a single-site model; both purified.

These are yes or no findings as the source states them, for the method shown. Some results given as binding are weak or reduced against the parent protein; the word gives no strength.

B1: paxillin LD1 peptide (human paxillin residues 1-20) (peptide)
peptide: MDDLDALLADLESTTSHISK
notes: paxillin, human, LD1 motif, residues 1-20; source: synthetic peptide, bought: Severn Biotech
On to B1, for which the binding result in test [1] is “binds”.

Regarding PGSQLDSMLGSLQSDLNKLG [paxillin LD5 peptide (human paxillin residues 296-315)], the binding result in test [2] is given as “binds weakly”.
